From paper PMC4691241, “Activation of ULK Kinase and Autophagy by GABARAP Trafficking from the Centrosome Is Regulated by WAC and GM130” (Molecular Cell, 2015)

Protein sequences, listed by entry. Tags and fused reporters are not part of them.
UniProt Q5VTR2: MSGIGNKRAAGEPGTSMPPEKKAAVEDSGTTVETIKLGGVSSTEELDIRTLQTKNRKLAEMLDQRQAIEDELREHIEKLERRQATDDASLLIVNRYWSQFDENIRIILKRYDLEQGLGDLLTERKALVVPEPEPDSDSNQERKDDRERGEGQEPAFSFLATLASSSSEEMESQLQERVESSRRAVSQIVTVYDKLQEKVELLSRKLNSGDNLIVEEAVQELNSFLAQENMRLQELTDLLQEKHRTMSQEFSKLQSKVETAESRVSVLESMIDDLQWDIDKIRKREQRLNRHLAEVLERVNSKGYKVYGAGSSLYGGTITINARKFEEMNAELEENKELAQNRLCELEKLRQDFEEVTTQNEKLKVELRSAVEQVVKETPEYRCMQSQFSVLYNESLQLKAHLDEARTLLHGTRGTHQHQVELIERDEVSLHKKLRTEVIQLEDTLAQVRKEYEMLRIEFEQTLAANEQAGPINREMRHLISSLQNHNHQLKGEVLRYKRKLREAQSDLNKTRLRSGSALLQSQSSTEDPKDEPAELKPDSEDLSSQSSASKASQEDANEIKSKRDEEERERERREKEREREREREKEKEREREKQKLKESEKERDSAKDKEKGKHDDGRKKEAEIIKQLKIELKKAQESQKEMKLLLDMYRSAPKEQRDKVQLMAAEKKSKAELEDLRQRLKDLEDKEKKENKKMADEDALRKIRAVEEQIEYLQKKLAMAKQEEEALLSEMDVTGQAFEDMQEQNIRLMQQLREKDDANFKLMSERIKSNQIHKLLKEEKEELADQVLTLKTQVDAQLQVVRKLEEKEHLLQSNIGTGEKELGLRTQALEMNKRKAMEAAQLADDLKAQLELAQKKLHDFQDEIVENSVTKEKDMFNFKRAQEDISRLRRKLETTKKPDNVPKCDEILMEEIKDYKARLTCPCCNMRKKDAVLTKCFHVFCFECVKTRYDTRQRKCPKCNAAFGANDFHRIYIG

B1: GM130 (GOLGA2), endogenous (protein, UniProt Q08379 1-1002)
chain: MWPQPRLPPRPAMSEETRQSKLAAAKKKLREYQQRNSPGVPTGAKKKKKIKNGSNPETTTSGGCHSPEDTPKDNAATLQPSDDTVLPGGVPSPGASLTSMAASQNHDADNVPNLMDETKTFSSTESLRQLSQQLNGLVCESATCVNGEGPASSANLKDLESRYQQLAVALDSSYVTNKQLNITIEKLKQQNQEITDQLEEEKKECHQKQGALREQLQVHIQTIGILVSEKAELQTALAHTQHAARQKEGESEDLASRLQYSRRRVGELERALSAVSTQQKKADRYNKELTKERDALRLELYKNTQSNEDLKQEKSELEEKLRVLVTEKAGMQLNLEELQKKLEMTELLLQQFSSRCEAPDANQQLQQAMEERAQLEAHLGQVMESVRQLQMERDKYAENLKGESAMWRQRMQQMSEQVHTLREEKECSMSRVQELETSLAELRNQMAEPPPPEPPAGPSEVEQQLQAEAEHLRKELEGLAGQLQAQVQDNEGLSRLNREQEERLLELERAAELWGEQAEARRQILETMQNDRTTISRALSQNRELKEQLAELQSGFVKLTNENMEITSALQSEQHVKRELGKKLGELQEKLSELKETVELKSQEAQSLQQQRDQYLGHLQQYVAAYQQLTSEKEVLHNQLLLQTQLVDQLQQQEAQGKAVAEMARQELQETQERLEAATQQNQQLRAQLSLMAHPGEGDGLDREEEEDEEEEEEEAVAVPQPMPSIPEDLESREAMVAFFNSAVASAEEEQARLRGQLKEQRVRCRRLAHLLASAQKEPEAAAPAPGTGGDSVCGETHRALQGAMEKLQSRFMELMQEKADLKERVEELEHRCIQLSGETDTIGEYIALYQSQRAVLKERHREKEEYISRLAQDKEEMKVKLLELQELVLRLVGDRNEWHGRFLAAAQNPADEPTSGAPAPQELGAANQQGDLCEVSLAGSVEPAQGEAREGSPRDNPTAQQIMQLLREMQNPRERPGLGSNPCIPFFYRADENDEVKITVI

Tests used:
[1] = target: T1, WAC (WW domain-containing adaptor with coiled coil), endogenous (human (endogenous in HEK293)) (UniProt Q9BTA9); experiment: affinity purification with mass spectrometry; immunoprecipitation of WAC from fed HEK293 cells; SDS-PAGE, gel slices, tryptic digestion
T1 sequence: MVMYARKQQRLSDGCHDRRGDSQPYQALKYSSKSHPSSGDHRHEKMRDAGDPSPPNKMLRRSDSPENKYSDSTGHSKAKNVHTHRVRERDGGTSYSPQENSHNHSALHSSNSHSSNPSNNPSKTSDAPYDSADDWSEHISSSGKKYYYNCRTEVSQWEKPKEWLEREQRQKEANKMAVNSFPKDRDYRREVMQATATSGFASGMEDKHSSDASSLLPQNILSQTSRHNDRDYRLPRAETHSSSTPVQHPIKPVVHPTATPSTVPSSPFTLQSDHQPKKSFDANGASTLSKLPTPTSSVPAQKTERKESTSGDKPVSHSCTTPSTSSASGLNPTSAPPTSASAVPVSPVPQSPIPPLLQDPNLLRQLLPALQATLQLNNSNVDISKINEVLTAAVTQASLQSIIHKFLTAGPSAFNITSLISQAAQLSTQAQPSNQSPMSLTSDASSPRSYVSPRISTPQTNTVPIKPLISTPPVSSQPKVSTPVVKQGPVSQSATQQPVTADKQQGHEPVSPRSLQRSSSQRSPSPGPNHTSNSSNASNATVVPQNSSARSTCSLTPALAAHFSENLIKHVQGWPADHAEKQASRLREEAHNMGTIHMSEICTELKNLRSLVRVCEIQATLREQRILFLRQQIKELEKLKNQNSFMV

WAC-FLAP (human) = target: T2, WAC-FLAP (human) (UniProt Q9BTA9); experiment: affinity purification with mass spectrometry; GFP-TRAP / GFP immunoprecipitation from fed HeLa WAC-FLAP cells; SDS-PAGE, gel slices, tryptic digestion
T2 sequence: T1 sequence

Row | Molecule | binding [1] | binding (WAC-FLAP (human))
1 | RNF20, endogenous (from UniProt Q5VTR2 1-975) | binds | binds
2 | B1 | binds | binds

These are yes or no findings as the source states them, for the method shown. Binding seen in cells or lysates may run through a third protein. Here binding means that the protein was enriched with, or labelled near, the bait; the list need not be complete.
